Results taken from article PMC7033719.
These are yes or no findings as the source states them, for the method shown. In cells and extracts the contact can be indirect. Some entries that bind do so weakly or less than the wild type. Sequences can lack the tags named with a protein.

The chains behind the UniProt entries cited, without tags or fusion partners.
UniProt P20339: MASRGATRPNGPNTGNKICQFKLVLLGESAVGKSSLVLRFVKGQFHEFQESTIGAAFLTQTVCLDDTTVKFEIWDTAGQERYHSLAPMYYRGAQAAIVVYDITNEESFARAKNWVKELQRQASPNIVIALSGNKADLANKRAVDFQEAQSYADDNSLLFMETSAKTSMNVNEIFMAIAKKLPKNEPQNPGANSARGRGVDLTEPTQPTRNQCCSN
UniProt P51149: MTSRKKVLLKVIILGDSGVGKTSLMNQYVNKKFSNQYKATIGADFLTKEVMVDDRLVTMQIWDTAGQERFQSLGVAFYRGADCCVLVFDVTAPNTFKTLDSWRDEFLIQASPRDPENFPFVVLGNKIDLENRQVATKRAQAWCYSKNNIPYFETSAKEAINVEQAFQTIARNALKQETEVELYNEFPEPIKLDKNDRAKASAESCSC
UniProt P62491: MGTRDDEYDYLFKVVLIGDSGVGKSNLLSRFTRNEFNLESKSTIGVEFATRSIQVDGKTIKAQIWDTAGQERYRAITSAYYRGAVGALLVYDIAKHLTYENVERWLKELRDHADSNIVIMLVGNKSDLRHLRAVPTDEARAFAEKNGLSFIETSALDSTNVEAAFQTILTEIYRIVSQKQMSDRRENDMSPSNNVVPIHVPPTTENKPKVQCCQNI

How the values were obtained:
[1] = biological target: T1, GDE2–GFP (human GDE2 tagged with GFP) (human) (UniProt Q8WTR4); experiment: co-IP; HEK293T cells transiently co-transfected with GDE2–mCh or GDE2–GFP and a tagged Rab; lysed after 24 h in RIPA buffer; 500 μg–1 mg extract incubated with GFP or mCherry Trap beads at 4°C for 1 h; immunoblot
T1 sequence: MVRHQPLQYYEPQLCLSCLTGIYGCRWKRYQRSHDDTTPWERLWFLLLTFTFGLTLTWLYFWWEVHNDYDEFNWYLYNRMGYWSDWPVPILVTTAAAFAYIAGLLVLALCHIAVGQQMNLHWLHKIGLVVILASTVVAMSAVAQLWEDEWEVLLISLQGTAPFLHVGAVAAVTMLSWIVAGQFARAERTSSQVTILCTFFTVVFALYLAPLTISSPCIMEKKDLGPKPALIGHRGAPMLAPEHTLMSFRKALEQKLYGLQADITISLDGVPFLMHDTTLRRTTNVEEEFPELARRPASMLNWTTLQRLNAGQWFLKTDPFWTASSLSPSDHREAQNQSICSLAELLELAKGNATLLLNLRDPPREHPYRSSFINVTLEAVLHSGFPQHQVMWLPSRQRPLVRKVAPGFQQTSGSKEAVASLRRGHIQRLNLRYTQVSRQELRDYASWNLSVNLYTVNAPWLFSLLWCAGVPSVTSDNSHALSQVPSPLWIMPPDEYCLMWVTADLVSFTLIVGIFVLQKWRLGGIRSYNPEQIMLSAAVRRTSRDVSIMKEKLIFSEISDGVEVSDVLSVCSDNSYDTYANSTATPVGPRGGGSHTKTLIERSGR

[2] = biological target: T2, GDE2–mCh (human GDE2 tagged with mCherry) (human) (UniProt Q8WTR4); experiment: as above
T2 sequence: T1 sequence

binding [1]	binding [2]	Substance
binds	–	Rab5a–mCh (from UniProt P20339 1-215)
–	binds	Rab7a–GFP (from UniProt P51149 1-207)
binds	–	Rab11a–mCh (from UniProt P62491 1-216)
